Measured values taken from patent publication US20240287177A1 (Merck KGaA, published 2024).
No constants are given. Whether binding was seen depends on the method and setting.

Amino acid sequences for entries named in this document (tags omitted). A change or cut given only in a name is not applied to a line headed by its entry.
UniProt O14931: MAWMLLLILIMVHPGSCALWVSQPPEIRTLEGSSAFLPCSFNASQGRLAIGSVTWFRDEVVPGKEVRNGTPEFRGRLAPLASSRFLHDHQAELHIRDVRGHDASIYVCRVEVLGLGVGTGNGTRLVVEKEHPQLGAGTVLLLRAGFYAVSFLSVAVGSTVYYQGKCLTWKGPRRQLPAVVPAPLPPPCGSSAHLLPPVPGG

Molecular target: recombinant human NKp30 extracellular domain, his-tagged (human) (UniProt O14931)
Experiment: BLI as in Example 1

binding: no binding (tested: ≤100 nM)
B1: VHH1.10 (humanized) (VHH)
VHH: EVQLVESGGGVVQPGGSLRLSCAASGFTLDDYTIGWVRQAPGKGLEWVSCFSPSDGTTYYADSVKGRFTISRDNAKNTLYLQMNSLRAEDTAVYYCAASFADGSSWCYDYWGQGTLVTVSS
